{
  "source": "PubChem BioAssay AID504444",
  "about": "(National Center for Advancing Translational Sciences (NCATS), 2011)",
  "note": "The campaign covered roughly 360,000 compounds. About 7,500 (2.1%) were called active. Inconclusive results, whose numbers are uncertain, are shown with a selection of clear calls. The call rests on the fitted dose curve; in most records, active means well fitted inhibition curve with a large enough effect; inconclusive means small, poorly fitted or top-dose-only effect, or effect the other way; inactive means flat fitted curve, though single readings scatter. Potencies beside an inconclusive call are fits to weak or partial responses and may not hold up. On the % scale 0 is the no-effect control and ±100 the full control effect; potency means the concentration at half of the fitted maximal effect.",
  "data": [
    {"assay": "Nrf2 qHTS screen for inhibitors; further: nearly all actives have a fitted effect of over 60% in size", "settings": "A549 ARE-Fluc reporter, luciferase luminescence, 18-24 h; activity change, negative = inhibition: at 46 µM (top of the series)", "summary_of_the_method": "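Nrf2 function is reported as luminescence of an ARE-controlled luciferase in A549 cells. Compounds were tested at several concentrations, and a CellTiter-Fluor read on the same wells flagged cytotoxicity.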", "values": [
      {"smiles": "COC(=O)c1cn(CCOc2ccccc2OC)c2ccccc12", "Potency": "inconclusive: 29.1 µM [falling, single point]"},
      {"smiles": "CCOC(=O)c1sc(NC(=O)c2ccc(OC)cc2)nc1C", "Potency": "inconclusive: 0.291 µM [activator, partial curve, poor fit]"},
      {"smiles": "CCSc1nc2ccccc2n1C(=O)/C=C/c1ccc(OC)c(OC)c1", "Potency": "inconclusive: 29.1 µM [falling, single point]"},
      {"smiles": "COc1cccc(/C=C/C(=O)OCC(=O)N(C)CC(=O)Nc2ccccc2Cl)c1OC", "Potency": "inactive"},
      {"smiles": "O=c1[nH]c(C2CCN(S(=O)(=O)c3ccc4c(c3)OCCO4)CC2)nc2c1nnn2Cc1c(F)cccc1Cl", "Potency": "inconclusive: 29.1 µM [activator, single point]"},
      {"smiles": "CN(C)C(CNC(=O)c1cc(S(=O)(=O)N(C)Cc2ccccc2)ccc1Cl)c1ccco1", "note": "(centres undefined)", "Potency": "active: 14.6 µM"},
      {"smiles": "CC1=C(C)CS(=O)N(c2ccc(S(N)(=O)=O)cc2)C1", "note": "(centres undefined)", "Potency": "inactive"},
      {"smiles": "Cc1nc(N2CCCCC2C)c2c(C)c(C(=O)Nc3cccc(C(F)(F)F)c3)sc2n1", "note": "(centres undefined)", "Potency": "inconclusive: 32.6 µM [falling, single point]"},
      {"smiles": "Cc1cc(C)c(C)c(S(=O)(=O)Nc2ccc3cn[nH]c3c2)c1C", "Potency": "inconclusive: 29.1 µM [falling, single point]"},
      {"smiles": "CCCC(C(=O)NCc1cccc(Cl)c1)N1Cc2ccccc2C1=O", "note": "(centres undefined)", "Potency": "inactive"},
      {"smiles": "O=C(N/N=C/c1ccc([N+](=O)[O-])cc1)c1cccc2cc[nH]c12", "Potency": "inconclusive: 25.9 µM [falling, single point]"},
      {"smiles": "O=C(OCc1nc2ccccc2s1)c1cccc(S(=O)(=O)N2CCOCC2)c1", "Potency": "inconclusive: 9.2 µM [activator, partial curve]"},
      {"smiles": "Nc1ccc(Oc2cc(N)cc(Oc3ccccc3)c2)cc1", "Potency": "inconclusive: 4.11 µM [activator, single point]"},
      {"smiles": "CN(CC(=O)NC1CCN(Cc2ccccc2)CC1)S(=O)(=O)c1ccc(Cl)s1", "Potency": "inconclusive: 16.4 µM [falling, single point]"},
      {"smiles": "COc1ccc(-c2nc(C#N)c(NCc3ccccc3Cl)o2)cc1", "Potency": "inactive"},
      {"smiles": "CN(c1ncc(C(F)(F)F)cc1Cl)N1C(=O)c2cccc([N+](=O)[O-])c2C1=O", "Potency": "inactive"},
      {"smiles": "Cc1ccc(-c2nc(CSc3nc4ccccc4c(=O)n3C)cs2)cc1", "Potency": "inactive"},
      {"smiles": "COCCNC(=O)Cn1nc(C)c2c(C)n(-c3ccc(C)cc3)nc2c1=O", "Potency": "inconclusive: 29.1 µM [activator, single point]"},
      {"smiles": "COc1cccc(NC(=O)CSc2nnc3scc(-c4ccc(Cl)cc4)n23)c1", "Potency": "inactive"},
      {"smiles": "COc1ccc(N(C(=O)c2ccc(OC)c(OC)c2)S(=O)(=O)c2ccc(Cl)cc2)cc1", "Potency": "inconclusive: 32.6 µM [falling, partial curve, poor fit]"},
      {"smiles": "Cc1nc2scc(C)n2c(=O)c1S(=O)(=O)N1CCN(c2ccccc2)CC1", "Potency": "inactive"},
      {"smiles": "CC1CCN(S(=O)(=O)c2ccc(Cl)cc2)CC1", "Potency": "inconclusive: 25.9 µM [falling, single point]"},
      {"smiles": "COc1ccc(C(=O)Nc2nnc(-c3ccco3)s2)cc1", "Potency": "inconclusive: 18.4 µM [activator, partial curve]"},
      {"smiles": "COc1ccc(OC)c(/C=C/c2ccnc3ccccc23)c1", "Potency": "inactive"},
      {"smiles": "Nc1cc2nc3ccccc3oc-2cc1=O", "Potency": "inconclusive: 29.1 µM [falling, single point]"},
      {"smiles": "Cc1ccc(NC(=O)Cn2c(O)c(N=NC(N)=S)c3ccccc32)cc1", "Potency": "inactive"},
      {"smiles": "COc1cc2c(cc1OC)C(COc1ccc3c(C)cc(=O)oc3c1)N(C(=O)c1cccc(C)c1)CC2", "note": "(centres undefined)", "activity change, negative = inhibition": "inactive: -11.6% [at 9.27 µM]"},
      {"smiles": "O=C(Nc1ccccc1)C1=C[C@@H](C2CCCCC2)C[C@@H](OCCCCO)O1", "Potency": "inconclusive: 25.9 µM [activator, single point]"},
      {"smiles": "COc1cccc(-c2csc(N3CCN(C(=O)Nc4ccccc4OC)CC3)n2)c1", "Potency": "inconclusive: 32.6 µM [falling, partial curve, poor fit]"},
      {"smiles": "COc1ccccc1CNC(=O)CSc1ccc(-c2cccs2)nn1", "Potency": "inconclusive: 1.84 µM [falling, partial curve, poor fit]"},
      {"smiles": "O=C(CN1CCN(S(=O)(=O)c2cc(C(F)(F)F)ccc2Cl)CC1)N1CCc2ccccc2C1", "Potency": "inconclusive: 5.17 µM [falling, partial curve, poor fit]"},
      {"smiles": "CCCn1nc(C(=O)Nc2cccc(C(=O)OC)c2)c2ccccc2c1=O", "Potency": "inactive"},
      {"smiles": "O=C(Nc1cc(NC(=O)c2ccccc2F)ccc1Cl)c1ccccc1", "Potency": "inconclusive: 32.6 µM [activator, single point]"},
      {"smiles": "COc1ccc(NC(=O)CSc2nncn3c2cc2oc(C)cc23)cc1OC", "Potency": "inactive"},
      {"smiles": "CC(=O)c1ccc(NC(=O)Cc2cccs2)cc1", "Potency": "inconclusive: 29.1 µM [activator, single point]"},
      {"smiles": "Cc1cc(NC(=O)CN(C)CC(=O)Nc2ccc(Cl)c(C(F)(F)F)c2)no1", "Potency": "inconclusive: 18.4 µM [falling, single point]"},
      {"smiles": "CC1=C(C(=O)NC2CC(C)(C)Cc3c2cnn3-c2cccc(F)c2)OCCO1", "note": "(centres undefined)", "Potency": "inconclusive: 20.6 µM [falling, single point]"},
      {"smiles": "O=C(C1CC1)N1CCc2cc(S(=O)(=O)NCC3COc4ccccc4O3)ccc21", "note": "(centres undefined)", "Potency": "inconclusive: 14.6 µM [falling, partial curve, poor fit]"},
      {"smiles": "O=C(N/N=C/c1ccccc1OC(=O)c1ccc2c(c1)OCO2)c1cccc(F)c1", "Potency": "inconclusive: 29.1 µM [falling, single point]"},
      {"smiles": "CCCN(CCC)c1nc(Cl)nc(NCCN2CCOCC2)n1", "Potency": "inconclusive: 20.6 µM [falling, single point]"},
      {"smiles": "O=C(/C=C/c1cccc([N+](=O)[O-])c1)Nc1ccc(NC(=O)c2cccs2)cc1", "Potency": "inactive"},
      {"smiles": "Cc1csc(C(C)N(C)C(=O)c2ccc(OC3CCN(Cc4ccccn4)CC3)cc2)n1", "note": "(centres undefined)", "Potency": "inconclusive: 29.1 µM [falling, single point]"},
      {"smiles": "S=C(NN=Cc1ccc2c(c1)OCO2)NN=Cc1ccc2c(c1)OCO2", "Potency": "inconclusive: 29.1 µM [activator, partial curve, poor fit]"},
      {"smiles": "O=C(NC1CCCCC1)C(c1cccs1)N(Cc1cccs1)C(=O)c1cccs1", "note": "(centres undefined)", "Potency": "inconclusive: 23.1 µM [falling, single point]"}
    ]}
  ]
}
